Measurements as given in PMC10163288.
The list shows a part of the results.

B1: il10ra_site1_normal_mot_HHH_b2_07579_000000275_0001_1_19_H_._HHH_b1_07685_af2_0001_0000300033_0000001_0 (protein)
chain: SSSSSEEVMELIREAAELLRNGNPEKAREVAEEAERIAEELGNFVLRFSVRHLLEDIENQSSSSS
B2: il10ra_site1_sap_20_mot_HHH_b2_04275_000000272_0001_20_36_H_._HHH_b1_03183_0001_0000200025_0000001_0_0001 (protein)
chain: SSSSDIEEEVEELLEEARHIPDEHEVAQLLFEAMRLAWENNDPELVMKVVQFAAEMLNERSSSSS
B3: il10ra_site1_sap_23_mot_HHH_b2_02463_af2_000000222_0001_1_19_H_._HHH_b1_06062_af2_0001_0000400023_0000001_0_0001 (protein)
chain: SSSSDEEYIRLALKFAKWLLEAGDPEAAKHILRAAADVARKAGNEEALEELEKLLKEVEEKSSSS
B4: il10ra_site1_sap_29_mot_HHH_b1_00992_000000182_0001_23_40_H_._ad6cd7d0a18b703aa9959b16ef12cf47_0001_1_0001_0000300017_0000001_0_0001 (protein)
chain: SSSSDEAYRLAEEFIEEILRLLHEGDREEAERLAEELLELLRELGDMNVTRNVEHLLKLVRSSSS
B5: il10ra_site1_normal_mot_HHH_b1_04015_af2_000000074_0001_1_17_H_._HHH_b1_03391_0001_0000200010_0000001_0 (protein)
chain: SSSSSEYEFAKERIERAAQLLQNGNPEEAKRVLEELEEFLEERNNEVTLWSVRHLLRLIEESSSS
B6: il10ra_site1_sap_19_mot_HHH_b1_06914_000000280_0001_1_18_H_._HHH_b2_00575_af2_0001_0000400020_0000001_0_0001_af2pred_0001 (protein)
chain: SSSSSRKAKIALEAAELAIRYALEQGDEHLAEAVFRVFAQLLRALGDEEAEEQLEELFERLSSSS
B7: il10ra_site1_sap_19_mot_HHH_b2_02463_af2_000000222_0001_1_19_H_._HHH_b1_00181_0001_0000200021_0000002_0_0001 (protein)
chain: SSSSSQMEELLEAARKFLEQALRLGNEEIARSAAMALRVAAEIAGDEEAKEYVEEVEKRLSSSSS
B8: il10ra_site1_sap_27_mot_HHH_b2_02053_af2_000000006_0001_3_19_H_._HHH_b1_06258_0001_0000700052_0000001_0_0001 (protein)
chain: SSSSSSEEEREVEELLEEAEQIPDPKERSEVLAEALKVAYEGQNPELVRLVWEVVEKLFSSSSSS
B9: il10ra_site1_normal_mot_HHH_b1_00814_af2_000000078_0001_43_57_H_._HHH_b2_04659_0001_0000100001_0000001_0_af2pred_0001 (protein)
chain: SSSSSSDIEEEIEELLEEAKHVDPHERLRLLREAFELALELGDPELERLVVEVAARLISSSSSSS
B10: il10ra_site1_sap_7_mot_HHH_b1_02648_000000074_0001_1_19_H_._HHH_b1_06690_0001_0000300022_0000001_0_0001 (protein)
chain: SSSSSETQRIAELIREAMELAREGDEEKVEEVLEEAERLAEENNNRLFLIQVRFLAKLENSSSSS
B11: il10ra_site1_sap_15_mot_HHH_b2_04013_af2_000000040_0001_22_39_H_._HHH_b2_06082_0001_0000200012_0000002_0_0001 (protein)
chain: SSSSSSDIEEEVEKLLEEAKRIDDPARRSHVLIQAYALADQNNNEELKELVREVLQELVSSSSSS
B12: il10ra_site1_sap_19_mot_HHH_b2_00033_000000036_0001_41_54_H_._HHH_b2_01402_0001_0000100011_0000002_0_0001_af2pred_0001 (protein)
chain: SSSSDERARRAAELSIKFAKHLAEAGDEEAARFILEAAAEILKKNNDEELLKELEELLEELSSSS
B13: il10ra_site1_sap_19_mot_HHH_b1_00103_000000293_0001_1_15_H_._HHH_b1_02295_0001_0000200008_0000001_0_0001 (protein)
chain: SSSSDEAYEIAKEAIERALEAWRRGNPEEAREIIEEAIELLEELNNPAAAFALRVVLEALRSSSS
B14: il10ra_site1_sap_23_mot_3c6ad1a4bc7d4f5cf55cee527202d42a_0001_000000108_0001_32_49_H_._HHH_b1_03537_af2_0001_0000800021_0000001_0_0001 (protein)
chain: SSSSSTLEWSVRFVIEVAEHLFELGDPERARELLEAILRQVERAGDEELLELLERVLEELSSSSS
B15: il10ra_site1_normal_mot_8756ee2cf497b5429c717dfc0c0bcfd6_0001_000000186_0001_1_13_H_._HHH_b1_02785_0001_0000100007_0000001_0 (protein)
chain: SSSSDNEELYRLLREAAEVHHEENDPEEAKEILEEAIELAEELNNDVFLAQAEYMLRLLRSSSSS
B16: il10ra_site1_sap_19_mot_HHH_b1_02616_af2_000000157_0001_1_18_H_._HHH_b1_06733_af2_0001_0000700019_0000001_0_0001 (protein)
chain: SSSSSEELQEEVEELLEEAKHIEDPRERAEVLLRATHLAMQLGDPELVRLVWRVVKELFKSSSSS
B17: il10ra_site1_normal_mot_HHH_b1_06837_000000150_0001_20_37_H_._HHH_b1_00034_0001_0000200019_0000001_0 (protein)
chain: SSSSDERREIYELLREASELDQEGNPEEARKVLEEAEELAEEAGNRLLLFVVEYLLRILNSSSSS
B18: il10ra_site1_normal_mot_HHH_b2_00475_000000107_0001_44_57_H_._HHH_b1_01897_0001_0000100002_0000001_0_af2pred_0001 (protein)
chain: SSSSSEEVAELLLKALEALANGNPEEARELAEEAERVAEELGDPELEEKVEIVKHFIEAVSSSSS
B19: il10ra_site1_sap_13_mot_HHH_b1_00814_af2_000000078_0001_43_57_H_._HHH_b1_01095_af2_0001_0000100003_0000001_0_0001 (protein)
chain: SSSSYEEVKELIEQIVELARNGNPEEAEKVLEELRELAEELNNPAVRFDVELLERDIKATSSSSS

target: il10ra, Q13651; test: yeast display titration

| Binder | apparent Kd |
| --- | --- |
| B1 | inactive: no binding seen |
| B2 | inactive: no binding seen |
| B3 | inactive: no binding seen |
| B4 | inactive: no binding seen |
| B5 | inactive: no binding seen |
| B6 | inactive: no binding seen |
| B7 | inactive: no binding seen |
| B8 | inactive: no binding seen |
| B9 | inactive: no binding seen |
| B10 | inactive: no binding seen |
| B11 | inactive: no binding seen |
| B12 | inactive: no binding seen |
| B13 | inactive: no binding seen |
| B14 | inactive: no binding seen |
| B15 | inactive: no binding seen |
| B16 | inactive: no binding seen |
| B17 | inactive: no binding seen |
| B18 | inactive: no binding seen |
| B19 | inactive: no binding seen |

Quoted from above (2 entries):

| Binder | apparent Kd |
| --- | --- |
| B15 | inactive: no binding seen |
| B16 | inactive: no binding seen |
